Assay results: PMC5651841, “The Staphylococcus aureus extracellular matrix protein (Emp) has a fibrous structure and binds to different extracellular matrices” (Scientific Reports, 2017)

Tests used:
Test in all cases: ELISA; matrix component (0.25 ug/well in 0.1 M Na2CO3, overnight 4 C) immobilised on polystyrene plates; Emp forms 0-1.5 uM added for 1 h at RT, PBST washes; detected with polyclonal anti-Emp IgG and AP-conjugated anti-rabbit IgG; KD from steady-state curves, one-site binding model; both purified
fibrinogen = target: fibrinogen
fibronectin = target: fibronectin
vitronectin = target: vitronectin

Measured: binding

B1: Emp1 (N-terminal fragment of Emp) (domain or fragment, UniProt Q2G012 26-116)
chain: ASVTESVDKKFVVPESGINKIIPAYDEFKNSPKVNVSNLTDNKNFVASEDKLNKIADSSAASKIVDKNFVVPESKLGNIVPEYKEINNRVN
no binding (tested: up to 1.5 uM): fibrinogen | fibronectin | vitronectin

These are yes or no findings as the source states them, for the method shown.
